Measurements: patent publication US20260174780A1, “BISMUTH-THIOL COMPOSITIONS AND METHODS FOR TREATING INFLAMMATORY DISEASES” (Microbion Corporation, priority 2022, published 2026)
For at least one compound, name, drawing or mass did not settle the structure.

System: Hypo-InflammaSkin models
Test: Ex vivo human skin model of psoriasis (Hypo-InflammaSkin), cytokine release in culture medium
Assay type: cell-based
Text: Background: InflammaSkin® model is a validated psoriasis-like model developed to reproduce key features of pro-Th17/Th1 inflammation associated with psoriasis. It relies on the in situ activation of resident T-cell of normal skin biopsies and their further polarization into Th17/Th1 phenotype with the supplementation of culture medium with a cocktail of pro-inflammatory cytokines.
Model production and culture: 2 HypoSkin models of 15 mm in diameter (1.76 cm^2) were produced from 1 donor and cultured with 2 mL standard HypoSkin® medium. 20 Hypo-InflammaSkin models were produced from 1 donor by inducing in sit activation and Th17/Th1 polarization of skin resident T cells with proprietary cocktail and cultured with 2 mL Hypo-InflammaSkin® culture medium. The total treatable surface area of the models was 113 mm^2, and dosing of BisEDT took this into account based on dosing of the topical treatment. Models were maintained in standard cell culture conditions for the whole culture duration at 37° C., 5% CO2 and water saturation, with appropriate culture medium renewed every day.
Treatment Groups: Model Treatment: (1) HypoSkin® untreated control; (2) Hypo-InflammaSkin® untreated control; (3) topical betamethasone (positive control); (4) topical BisEDT—2.5 mg/mL (treatment applied every day from day 0 to 6; (5) topical BisEDT—1.25 mg/mL (treatment applied every day from day 3 to 6). N=3 per treatment group, except N=5 for Hypo-InflammaSkin® and N=1 for HypoSkin®.
Topical Treatment—Betamethasone (control): 25 μL of betamethasone was topically applied onto the surface of each skin model. Topical application was performed from Day 0 to Day 6 after removal of the previous treatment residues using a cotton swab.
Topical Treatment—BisEDT: 36 μL of the test compound was topically applied onto the surface of each skin model, massaging across the entire surface area for 1 minute, using a parafilm wrapped cotton swab; the compound was left on the skin. Topical application was performed from Day 0 to Day 6 (Treatment Group 4) or Day 3 to Day 6 (Treatment Group 5). A total of 9 models were topically treated.
Culture Media—culture media was collected on Day 3 prior to treatment application and on Day 7 and frozen at −80° C. A total of 42 culture media samples were collected.
IL-22 release: IL-22 release was measured in culture media using ELISA Human IL-22 Quantikine Kit (Bio-techne, ref D2200). Only samples from control conditions 1 to 3 were analyzed to assess donor's response to T cell activation. Each sample was analyzed in duplicate.
MSD Immunoassay—cytokine release (IL-2, IL-13, IL-15, IL-17A, IL-22, TNF-α, INF-γ, MIP-1β, and […]) in the culture medium was measured using the V-PLEX Plus Human Cytokine Kit (KI5089G, MesoScale Discovery) (FIGS. 13D-13S).

[1] = Day 7, compared to untreated HypoInflammaSkin controls

C[C@H]1C[C@H]2[C@@H]3CCC4=CC(=O)C=C[C@]4(C)[C@@]3(F)[C@@H](O)C[C@]2(C)[C@@]1(O)C(=O)CO [betamethasone, reference compound]
decreased: secretion of IL-22 (Day 7 (FIG. 13R), compared to untreated HypoInflammaSkin control) | secretion of MIP-3α (Day 7 (FIG. 13S), compared to untreated HypoInflammaSkin) | secretion of IFN-γ [1] | secretion of IL-13 [1] | secretion of IL-15 [1] | secretion of IL-17A [1] | secretion of TNF-α [1]
